In patent publication US20160311791A1, “NOVEL TRICYCLIC CALCIUM SENSING RECEPTOR ANTOGONISTS FOR THE TREATMENT OF OSTEOPOSOSIS” (MERCK SHARP & DOHME CORP., priority 2013, published 2016):
For part of these data: At least one read-out could not be matched to a standard name with certainty. Some results were stated once for a whole list of compounds, not compound by compound. Some ranges recur; such a range may be that of the whole group of compounds.

How the values were obtained:
[1] = Pharmacokinetic evaluation in rats; assay type: in vivo, rat; conditions: dose and route not given
PTH release = experiment: In vivo pharmacodynamic effects: PTH (Rat Intact PTH 1-84 ELISA); conditions: rats
Procedure: (§1) Procedures for In Vivo Pharmacodynamic Effects
(§2) The objective of these studies was to assess the effect of compounds on stimulating PTH release and increasing calcium secretion in the rat. Male Sprague-Dawley rats (3-4 months old) were equipped with jugular vein cannulae (JVC) by surgical procedure. The rats were given the compound by oral gavage. Blood was sampled from the JVC at 15 minutes, 30 minutes, 60 minutes, 120 minutes, 240 minutes, 420 minutes, and 24 hrs post compound administration. Plasma was separated and used for a PTH ELISA assay and a calcium concentration assay. After the last blood sampling, the rats were sacrificed under anesthesia by inhalation of CO2. All procedures were conducted in compliance with the Animal Welfare Act, the Guide for the Care and Use of Laboratory Animals and the recommendations of the AVMA Panel on Euthanasia.
(§3) Rat plasma samples were used for measuring serum PTH levels: The Rat Intact PTH 1-84 ELISA kit (Immutopics Cat#60-2500) was used according to the manufacturer's instructions. Total serum calcium determination was made using a calcium arsenazo III reagent (Fisher Scientific Cat # Pointe Scientific Calcium (Arsenazo III) Reagents; Mfr. No.: C7529-500; Qty.: 500 mL. Mfr. No.: C7529-500, Part #23666172) according to the manufacturer's instructions. For these experiments, 2 μl of sample was added to 198 μl of reagent, mixed, and read at 650 nm.

serum calcium = experiment: In vivo pharmacodynamic effects: total serum calcium (arsenazo III); design: species or system rat; conditions: rats
Procedure: as §1, §2, §3

SMILES | tmax (time to Cmax) [1] [min] | release of PTH reaches a maximum in the circulation (PTH release) [min] | changes in serum calcium (serum calcium) | serum calcium returns to baseline (serum calcium) [hours post-dosing]
C[C@@H](OC[C@H](O)CNC(C)(C)Cc1ccc2ccccc2c1)c1cccc2c1[C@@H]1[C@H](O2)[C@H]1C(=O)O [Example 5-1] | 30 | 15 to 30 | less than 2.3 mg/dl | ≤ 7
C[C@@H](OC[C@H](O)CNC(C)(C)Cc1ccc2ccccc2c1)c1cccc2c1O[C@@H]1[C@@H](C(=O)O)[C@H]21 [Example 1-1] | 30 | 15 to 30 | less than 2.3 mg/dl | ≤ 7
CSc1ccc(CC(C)(C)NC[C@@H](O)CO[C@H](C)c2ccc(C)c3c2C2[C@H](O3)[C@H]2C(=O)O)cc1F (stereo partly drawn) [Example 8-24] | 30 | 15 to 30 | less than 2.3 mg/dl | ≤ 7
